Experimental data from patent US9289464B2, “Method for diagnosing and treating NIS-expressing carcinomas and metastases” (priority 2002, dated 2016).
For at least one compound, name, drawing or mass did not settle the structure.

Experiments:
[1] = test system: breast cancer cell line MCF-7; experiment: Iodide uptake assay (Na125I) in MCF-7 cells; assay type: cell-based, human; conditions: 1 μM tRA and/or 5 μM CIG
Protocol: (§1) All the cell lines used herein were purchased from the Deutschen Sammlung von Mikroorganismen und Zelikulturen (DSMZ; Brunswick, Germany, DSMZ No.: MCF-7 (ACC 115)). MCF-7 cells were cultured in RPMI 1640 medium with 10% FCS (fetal calf serum) and addition of 1× nonessential amino acids, 0.01 mg/ml bovine insulin and 5% penicillin/streptomycin. The HeLa cells were cultured in RPMI 1640 medium. All the reagents for the cell culture were, unless indicated otherwise, purchased from Invitrogen, Karlsruhe, Germany. Cells were cultured in plates with 24 wells (24 Well Plates) for 24 h. The cells were then washed and subsequently the substances to be tested (ciglitazone, trans-retinoic acid with or without KClO4) were added in fresh medium. […] After the incubation, the cells were washed twice with ice-cold RPMI 1640 and lysed in 2% SDS-PAGE sample buffer (0.0625 M Tris-HCl, pH 6.8) with 1 U/μl Benzonase (Merck KgaA, Darmstadt, Germany). The ^125I uptake was measured in a gamma counter. An aliquot of each sample was employed to determine the protein concentration using the DC protein determination kit from Bio-Rad (Munich, Germany) in order thus to achieve standardization with different numbers of cells.

[2] = test system: cervical carcinoma cell line HeLa; experiment: Iodide uptake assay (Na125I) in HeLa cells; assay type: cell-based; conditions: 1 μM tRA with or without 5 μM CIG, 48 h
Protocol: as §1

Q: `CC1(COc2ccc(CC3SC(=O)NC3=O)cc2)CCCCC1` (centres unmarked) [CIG, ciglitazone] was tested. Which “effect on iodide uptake (in words)” value [1] did it give?
A: does not induce iodide uptake

Q: What about the “induction of iodide uptake (in words)” value [2] of the same compound?
A: no induction of iodide uptake
